No constants are given. Whether binding was seen depends on the method and setting. A result given as binding can be weak or reduced; the word gives no strength.
Target: T1, Ankyrin repeat and MYND domain-containing protein 1 (ANKMY1) (mouse (endogenous in mouse sperm)) (UniProt Q8C0W1)
T1 sequence: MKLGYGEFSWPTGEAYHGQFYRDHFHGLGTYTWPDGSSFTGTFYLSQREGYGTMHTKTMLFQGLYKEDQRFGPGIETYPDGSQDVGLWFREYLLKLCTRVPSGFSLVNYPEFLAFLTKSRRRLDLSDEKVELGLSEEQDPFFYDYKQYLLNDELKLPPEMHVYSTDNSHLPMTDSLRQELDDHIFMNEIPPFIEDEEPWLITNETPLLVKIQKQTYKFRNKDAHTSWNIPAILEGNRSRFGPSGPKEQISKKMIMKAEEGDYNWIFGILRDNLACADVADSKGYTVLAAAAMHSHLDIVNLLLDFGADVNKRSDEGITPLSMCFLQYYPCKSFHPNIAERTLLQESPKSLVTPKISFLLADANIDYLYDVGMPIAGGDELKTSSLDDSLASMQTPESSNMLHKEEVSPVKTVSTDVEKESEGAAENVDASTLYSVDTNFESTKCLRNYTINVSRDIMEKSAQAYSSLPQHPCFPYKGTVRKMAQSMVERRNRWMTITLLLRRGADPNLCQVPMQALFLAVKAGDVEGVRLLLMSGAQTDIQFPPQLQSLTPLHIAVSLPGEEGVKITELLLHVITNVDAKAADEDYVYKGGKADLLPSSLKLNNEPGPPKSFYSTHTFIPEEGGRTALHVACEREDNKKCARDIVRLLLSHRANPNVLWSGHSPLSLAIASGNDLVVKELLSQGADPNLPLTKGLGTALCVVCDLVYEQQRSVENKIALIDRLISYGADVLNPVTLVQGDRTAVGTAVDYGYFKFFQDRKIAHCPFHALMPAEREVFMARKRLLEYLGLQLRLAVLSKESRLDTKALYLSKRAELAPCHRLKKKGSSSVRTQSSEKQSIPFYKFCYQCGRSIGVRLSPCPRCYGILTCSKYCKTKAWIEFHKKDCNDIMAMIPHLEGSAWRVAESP
Assay: cryo-EM structure

binding: binds
Substance: CCDC180 (mouse (endogenous in mouse sperm))

— article doi:10.1101/2024.08.06.606614 (bioRxiv, 2024)
